Reference: article PMC3701712
These are yes or no findings as the source states them, for the method shown. Some entries that bind do so weakly or less than the wild type. Where a sequence is shown, tags or fusion partners need not be part of it.

Protein sequences, listed by entry. Tags and fused reporters are not part of them.
UniProt P03496: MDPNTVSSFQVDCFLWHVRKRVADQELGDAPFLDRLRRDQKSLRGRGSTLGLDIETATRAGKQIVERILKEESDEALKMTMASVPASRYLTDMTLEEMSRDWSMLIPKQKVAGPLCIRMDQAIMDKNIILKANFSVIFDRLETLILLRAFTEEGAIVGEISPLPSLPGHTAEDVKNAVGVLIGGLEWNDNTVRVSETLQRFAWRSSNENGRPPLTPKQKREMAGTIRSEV

Molecular target: A/H1N1/Puerto Rico/8/34 virus NS1 protein fused to the Gal4 DNA-binding domain (influenza A virus A/H1N1/Puerto Rico/8/34) (UniProt P03496)
Assay: two-hybrid

B1: full-length ADAR1 fused to Gal4 activating domain (protein, UniProt P55265 1-1226)
chain: MNPRQGYSLSGYYTHPFQGYEHRQLRYQQPGPGSSPSSFLLKQIEFLKGQLPEAPVIGKQTPSLPPSLPGLRPRFPVLLASSTRGRQVDIRGVPRGVHLRSQGLQRGFQHPSPRGRSLPQRGVDCLSSHFQELSIYQDQEQRILKFLEELGEGKATTAHDLSGKLGTPKKEINRVLYSLAKKGKLQKEAGTPPLWKIAVSTQAWNQHSGVVRPDGHSQGAPNSDPSLEPEDRNSTSVSEDLLEPFIAVSAQAWNQHSGVVRPDSHSQGSPNSDPGLEPEDSNSTSALEDPLEFLDMAEIKEKICDYLFNVSDSSALNLAKNIGLTKARDINAVLIDMERQGDVYRQGTTPPIWHLTDKKRERMQIKRNTNSVPETAPAAIPETKRNAEFLTCNIPTSNASNNMVTTEKVENGQEPVIKLENRQEARPEPARLKPPVHYNGPSKAGYVDFENGQWATDDIPDDLNSIRAAPGEFRAIMEMPSFYSHGLPRCSPYKKLTECQLKNPISGLLEYAQFASQTCEFNMIEQSGPPHEPRFKFQVVINGREFPPAEAGSKKVAKQDAAMKAMTILLEEAKAKDSGKSEESSHYSTEKESEKTAESQTPTPSATSFFSGKSPVTTLLECMHKLGNSCEFRLLSKEGPAHEPKFQYCVAVGAQTFPSVSAPSKKVAKQMAAEEAMKALHGEATNSMASDNQPEGMISESLDNLESMMPNKVRKIGELVRYLNTNPVGGLLEYARSHGFAAEFKLVDQSGPPHEPKFVYQAKVGGRWFPAVCAHSKKQGKQEAADAALRVLIGENEKAERMGFTEVTPVTGASLRRTMLLLSRSPEAQPKTLPLTGSTFHDQIAMLSHRCFNTLTNSFQPSLLGRKILAAIIMKKDSEDMGVVVSLGTGNRCVKGDSLSLKGETVNDCHAEIISRRGFIRFLYSELMKYNSQTAKDSIFEPAKGGEKLQIKKTVSFHLYISTAPCGDGALFDKSCSDRAMESTESRHYPVFENPKQGKLRTKVENGEGTIPVESSDIVPTWDGIRLGERLRTMSCSDKILRWNVLGLQGALLTHFLQPIYLKSVTLGYLFSQGHLTRAICCRVTRDGSAFEDGLRHPFIVNHPKVGRVSIYDSKRQSGKTKETSVNWCLADGYDLEILDGTRGTVDGPRNELSRVSKKNIFLLFKKLCSFRYRRDLLRLSYGEAKKAARDYETAKNYFKKGLKDMGYGNWISKPQEEKNFYLCPV
For B1, the binding was “binds”.
